These results are taken from PubChem BioAssay AID280 (DTP/NCI, 2004).

The test system of the assay is nude mice, LOX melanoma ip, survival T/C. Briefly: NCI In Vivo Anticancer Drug Screen. Data for tumor model Human Amelanotic Melanoma (LOX) (intraperitoneal) in NU/NU BALB/C (nude) mice. Conditions: T/C endpoint: median survival time, higher T/C = longer survival. The protocol: The antitumor activity of compounds was measured in mice bearing transplantable tumors. Survival or tumor size were measured and the results are expressed as the measurement made in the treated group (T) divided by the measurement made in the vehicle treated control group (C). The tumor model used in this assay is Human Amelanotic Melanoma (LOX) (intraperitoneal) in NU/NU BALB/C (nude) mice

[1] abbreviates: dose: 5.0 mg/kg/injection, schedule: Q04DX003 (ip), vehicle: saline + alcohol.
[2] abbreviates: dose: 30.0 mg/kg/injection, schedule: Q01DX001 (ip), vehicle: propolene glycol.

The structures appear in SMILES notation. The list is a part of this screen's results and no random one: it is rich in T/C values a quarter to a half above the control, in often repeated tests (any T/C) and in doses without a T/C. Further doses and runs are listed elsewhere. T/C is the treated group as % of the vehicle group. Some doses have a count of surviving animals in place of a T/C: the source holds a T/C of zero for them, seemingly a mark for toxic or unscored doses. Some doses without a T/C left all or most animals alive at the check, yet need not have been tolerated: survival well below the control is almost never listed, so the zero probably covers shortened survival too. Counts of survivors are from the toxicity check (mostly the fifth day) where no day follows; animals may have died later. Schedule codes are those of the source, taken here to give the interval after Q, in days (D) or hours (H), and the number of doses after X. Some entries were tested several times; the values are given in rising order. Where survival is the endpoint, the PubChem record calls one and a half times the control and up active, and a quarter to a half above the control has no call in these data; cut-offs in other NCI protocols can differ. Some T/C values are followed by the survivors on the day toxicity was checked, most often the fifth; without a count, all were alive then.

Take `COc1cc(C2CC(C)(O)Oc3cc4c(cc32)OCO4)cc(OC)c1OC` (configuration not stated): the survivor count was 2 of 6 on day 10 (dose: 100.0 mg/kg/injection, schedule: Q04DX003 (ip), vehicle: saline with Tween-80); 2 of 6 on day 10 (dose: 200.0 mg/kg/injection, schedule: Q04DX003 (ip), vehicle: saline with Tween-80); 0 of 6 on day 10 and 1 of 6 on day 10 (dose: 400.0 mg/kg/injection, schedule: Q04DX003 (ip), vehicle: saline with Tween-80); 0 of 6 on day 10 and 1 of 6 on day 10 (dose: 800.0 mg/kg/injection, schedule: Q04DX003 (ip), vehicle: saline with Tween-80).
As for `CC[C@@H](C)[C@H]([C@H](CC(=O)N1CCC[C@@H]1[C@@H](OC)[C@H](C)C(=O)N[C@H](Cc1ccccc1)c1nccs1)OC)N(C)C(=O)[C@H](NC(=O)[C@@H](C(C)C)N(C)C)C(C)C`, the T/C reads like this: (dose: 3.0 micrograms/kg/injection, schedule: Q04DX003 (ip), vehicle: saline + alcohol) 147 % of control; (dose: 6.0 micrograms/kg/injection, schedule: Q04DX003 (ip), vehicle: saline + alcohol) 143 % of control; (dose: 9.0 micrograms/kg/injection, schedule: Q04DX003 (ip), vehicle: saline + alcohol) 138 % of control; (dose: 15.0 micrograms/kg/injection, schedule: Q04DX003 (ip), vehicle: saline + alcohol) 129 % of control; (dose: 26.0 micrograms/kg/injection, schedule: Q04DX003 (ip), vehicle: saline + alcohol) 130 % of control. Moreover, the survivor count is, setting by setting: (dose: 43.0 micrograms/kg/injection, schedule: Q04DX003 (ip), vehicle: saline + alcohol) 6 of 6 on day 10; (dose: 52.0 micrograms/kg/injection, schedule: Q04DX003 (ip), vehicle: saline + alcohol) 0 of 6 on day 10.
Take `NCCSC(C[N+](=O)[O-])c1ccccc1Cl` (configuration not stated): for the setting “dose: 100.0 mg/kg/injection, schedule: Q04DX003 (ip), vehicle: saline”, the T/C was 125 % of control. Moreover, where the note is “dose: 200.0 mg/kg/injection, schedule: Q04DX003 (ip), vehicle: saline”, the survivor count is on record as 1 of 6 on day 10.
Take `NNC(=O)c1ccncc1`: the T/C (dose: 75.0 mg/kg/injection, schedule: Q04DX003 (ip), vehicle: saline) was 128 % of control. The survivor count was 5 of 6 on day 10 (dose: 150.0 mg/kg/injection, schedule: Q04DX003 (ip), vehicle: saline) and 1 of 6 on day 10 (dose: 300.0 mg/kg/injection, schedule: Q04DX003 (ip), vehicle: saline).
As for `O=NN(CCCl)C(=O)NCCCl`, the T/C reads like this: (dose: 1.25 mg/kg/injection, schedule: Q01DX015 (ip), vehicle: saline + alcohol) 137 % of control; under setting [1], 138 % of control; (dose: 10.0 mg/kg/injection, schedule: Q01DX001 (ip), vehicle: saline + alcohol) 138 % of control; (dose: 10.0 mg/kg/injection, schedule: Q01DX015 (ip), vehicle: saline + alcohol) 148 % of control; (dose: 80.0 mg/kg/injection, schedule: Q04DX003 (ip), vehicle: saline + alcohol) 138 % of control [5 of 6 alive on day 10]. In addition, the survivor count is, setting by setting: (dose: 20.0 mg/kg/injection, schedule: Q01DX015 (ip), vehicle: saline + alcohol) 6 of 6 on day 10; (dose: 30.0 mg/kg/injection, schedule: Q01DX005 (ip), vehicle: saline + alcohol) 6 of 6 on day 10.
With `CN(C)[C@@H]1C(=O)C(C(=O)NCN2CCN(C(=N)N=C(N)N)CC2)=C(O)[C@@]2(O)C(=O)C3=C(O)c4c(O)cccc4[C@@](C)(O)[C@H]3C[C@@H]12`, the T/C (dose: 0.63 mg/kg/injection, schedule: Q04DX003 (ip), vehicle: suspension in saline) was 135 % of control.
Consider `CC(O)CCC(=O)c1ccoc1` (configuration not stated), for which the T/C under setting [2] is 147 % of control [7 of 10 alive on day 10]. For the same compound, the survivor count was 4 of 10 on day 10 under setting [2]; 0 of 10 on day 10 and 2 of 10 on day 10 (dose: 50.0 mg/kg/injection, schedule: Q01DX001 (ip), vehicle: propolene glycol); 0 of 10 on day 10 (dose: 83.3 mg/kg/injection, schedule: Q01DX001 (ip), vehicle: propolene glycol); 0 of 10 on day 10 (dose: 138.9 mg/kg/injection, schedule: Q01DX001 (ip), vehicle: propolene glycol).
For `Cc1nc(C(Cl)(Cl)Cl)[nH]c(=O)c1SCCO`, the survivor count (dose: 1200.0 mg/kg/injection, schedule: Q04DX003 (ip), vehicle: distilled water + Tween-80 + alcohol) is 0 of 6 on day 10.
Take `CN=C(NC#N)NCCSCc1nc[nH]c1C`: the survivor count is, setting by setting: (dose: 600.0 mg/kg/injection, schedule: Q04DX003 (ip), vehicle: Klucel (hydroxypropylcellulose) (HPC)) 0 of 6 on day 10; (dose: 1200.0 mg/kg/injection, schedule: Q04DX003 (ip), vehicle: Klucel (hydroxypropylcellulose) (HPC)) 0 of 6 on day 10.
With `COc1cc(C(C)c2cc3c(cc2OCCO)OCO3)cc(OC)c1OC` (configuration not stated), the T/C (dose: 300.0 mg/kg/injection, schedule: Q04DX003 (ip), vehicle: saline with Tween-80) is 126 % of control. Moreover, for the setting “dose: 1200.0 mg/kg/injection, schedule: Q04DX003 (ip), vehicle: saline with Tween-80”, the survivor count is listed as 1 of 6 on day 10.
As to `CC(=O)c1cccc(NC2C(N)C(NC(=O)N(C)C)(C(C)O)C(C)(O)C2(O)COC(=O)c2c(C)cccc2O)c1` (configuration not stated), the T/C reads like this: (dose: 3.13 mg/kg/injection, schedule: Q04DX003 (ip), vehicle: suspension in saline) 137 % of control; (dose: 6.25 mg/kg/injection, schedule: Q04DX003 (ip), vehicle: suspension in saline) 134 % of control; (dose: 25.0 mg/kg/injection, schedule: Q04DX003 (ip), vehicle: suspension in saline) 148 % of control. The survivor count (dose: 50.0 mg/kg/injection, schedule: Q04DX003 (ip), vehicle: suspension in saline) was 2 of 6 on day 10.
In the case of `O=C1C=C(N2CC2)C(=O)C(N2CC2)=C1N1CC1`, the T/C reads like this: (dose: 50.0 micrograms/kg/injection, schedule: Q04DX003 (ip), vehicle: saline) 134 % of control; (dose: 72.0 micrograms/kg/injection, schedule: Q04DX003 (ip), vehicle: saline) 131 % of control; (dose: 200.0 micrograms/kg/injection, schedule: Q04DX003 (ip), vehicle: saline) 147 % of control. Moreover, the survivor count (dose: 400.0 micrograms/kg/injection, schedule: Q04DX003 (ip), vehicle: saline) is 3 of 6 on day 10.
As to `CCC(=O)[O][Bi]([c]1ccccc1)[c]1ccccc1`, where the note is “dose: 50.0 mg/kg/injection, schedule: Q04DX003 (ip), vehicle: Klucel (hydroxypropylcellulose) (HPC)”, the survivor count is recorded as 3 of 6 on day 10.
Consider `N=C(N)c1ccc(Nc2ccc(-c3cc4ccc(C(=N)N)cc4[nH]3)cc2)cc1`, for which the T/C reads like this: (dose: 1.87 mg/kg/injection, schedule: Q04DX003 (ip), vehicle: saline) 130 % of control; (dose: 3.75 mg/kg/injection, schedule: Q04DX003 (ip), vehicle: saline) 133 % of control; (dose: 7.5 mg/kg/injection, schedule: Q04DX003 (ip), vehicle: saline) 139 % of control; (dose: 15.0 mg/kg/injection, schedule: Q04DX003 (ip), vehicle: saline) 139 % of control. Further, under “dose: 30.0 mg/kg/injection, schedule: Q04DX003 (ip), vehicle: saline”, the survivor count was 2 of 6 on day 10.
In the case of `O=C1CN(c2ccccc2)C(=O)C1C(=O)Nc1ccc(Cl)c(Cl)c1` (configuration not stated), the T/C (dose: 60.0 mg/kg/injection, schedule: Q04DX003 (ip), vehicle: saline with Tween-80) is 125 % of control and the T/C (dose: 240.0 mg/kg/injection, schedule: Q04DX003 (ip), vehicle: saline with Tween-80) was 132 % of control. The survivor count by setting is: (dose: 480.0 mg/kg/injection, schedule: Q04DX003 (ip), vehicle: saline with Tween-80) 3 of 6 on day 10; (dose: 960.0 mg/kg/injection, schedule: Q04DX003 (ip), vehicle: saline with Tween-80) 1 of 6 on day 10.
Regarding `COC1=C(C)C(=O)C2=C(C1=O)C(CO)N1C(C#N)C3CC4C(C1C2N1CCOC41)N3C` (configuration not stated), the T/C (dose: 1.25 mg/kg/injection, schedule: Q04DX003 (ip), vehicle: saline + alcohol) was 133 % of control. Moreover, the survivor count is on record as 2 of 6 on day 10 (dose: 5.0 mg/kg/injection, schedule: Q04DX003 (ip), vehicle: acid diluted with saline); 0 of 6 on day 10 under setting [1]; 0 of 6 on day 10 (dose: 10.0 mg/kg/injection, schedule: Q04DX003 (ip), vehicle: acid diluted with saline); 0 of 6 on day 10 (dose: 10.0 mg/kg/injection, schedule: Q04DX003 (ip), vehicle: saline + alcohol).
